Source: PubChem BioAssay AID504467 (National Center for Advancing Translational Sciences (NCATS), 2011)
Screen size: about 330,000 compounds; about 7,700 (2.3%) were called active. Inconclusive means that the source gave no clear call. Such entries were picked first, then a sample of the others. Calls come from the whole dose curve; as a rule, active = well fitted inhibition curve with a large enough effect; inconclusive = small, poorly fitted or top-dose-only effect, or effect the other way; inactive = flat fitted curve, though single readings scatter. Potencies of inconclusive entries are doubtful fits and often do not repeat.

Assay: qHTS screen for small molecules that inhibit ELG1-dependent DNA repair in human embryonic kidney (HEK293T) cells expressing luciferase-tagged ELG1; note: nearly all actives have a fitted effect of over 55% in size
Settings: HEK293T ELG1-luciferase reporter, luminescence, 16 h, DNA damage induced by 5-fluorouridine; activity change, negative = inhibition: at 46.1 µM (top of the series)
In short: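 Luminescence from the luciferase reporter, measured 30 min after ONE-Glo reagent at room temperature, was the read-out. Beforehand, 2,000 cells per well were exposed for 16 hr at 37 °C to 5-fluorouridine together with compound or vehicle.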
% is set by controls: 0 for no effect and ±100 for the full control effect; potency is the fitted concentration of half-maximal effect.

Row | SMILES | Potency | activity change, negative = inhibition
1 | CCOc1ccc(CCNC(=O)c2ccc3nc(N4CCOCC4)sc3c2)cc1OCC | active: 23.1 µM | –
2 | NC(=O)c1nsc(C(=O)N(CCc2ccccc2)C(C(=O)NC2CCCC2)c2ccco2)c1N (stereo not drawn) | inconclusive: 3.26 µM [inhibitor, single point] | –
3 | O=C(Cn1cnc2c(cnn2-c2ccccc2)c1=O)N1CCOCC1 | – | inactive: -8.53%
4 | FC(F)c1nnc2c(Cl)cc(C(F)(F)F)cn12 | – | inactive: -10.5%
5 | CCN(Cc1ccncc1)C(=O)Cc1cccs1 | – | inactive: -10.6%
6 | Cc1ccc2nc(C)c(C(=O)N/N=C/c3cccs3)n2c1 | – | inactive: -4.57%
7 | O=C(Nc1cccc(S(=O)(=O)Nc2ccccc2Cl)c1)c1ccc(N2CCCC2)c([N+](=O)[O-])c1 | – | inactive: -23.3%
8 | CCNc1nnc(-c2ccc(C)cc2)o1 | inconclusive: 18.4 µM [activator, partial curve] | –
9 | CCCc1cc(=O)oc2cc(C)cc(OCC(=O)Nc3ccc(CN4CCOCC4)cc3)c12 | active: 14.6 µM | –
10 | Cc1nc2ccc(Nc3nc4cc(S(=O)(=O)N5CCOCC5)ccc4o3)cc2s1 | – | inactive: -1.14%
11 | O=C(COc1ccc(Cl)cc1)N1CCN(c2ccc([N+](=O)[O-])c(N3CCOCC3)c2)CC1 | inconclusive: 23.1 µM [inhibitor, single point] | –
12 | CN(C)S(=O)(=O)c1cccc(NC(=O)c2ccc3nccnc3c2)c1 | inconclusive: 3.26 µM [inhibitor, partial curve, poor fit] | –
13 | Cc1ccn2cc(CNS(=O)(=O)c3cccs3)nc2c1 | inconclusive: 14.6 µM [activator, partial curve, poor fit] | –
14 | CCCCOc1ccc(-c2ncc(Cl)cn2)cc1 | inconclusive: 6.51 µM [activator, partial curve] | –
15 | COc1ccc(C(=O)O)cc1S(=O)(=O)Nc1ccc(N2CCCCC2)cc1 | inconclusive: 25.9 µM [activator, single point] | –
16 | O=C(O)c1cc(-c2ccccc2)n(-c2ccccc2)n1 | inconclusive: 18.4 µM [inhibitor, single point] | –
17 | CC(=O)NC(=C(Cl)Cl)S(=O)(=O)c1ccccc1 | inconclusive: 29.1 µM [inhibitor, single point] | –
18 | Cc1[nH]n(-c2ccccc2)c(=O)c1C(=O)Nc1ccccc1 | inconclusive: 18.3 µM [activator, single point] | –
19 | COc1ccc(N2C(=O)c3ccccc3NC23CCCCC3)cc1 | inconclusive: 14.6 µM [activator, partial curve] | –
20 | COc1ccc(-c2cn3cccnc3n2)cc1 | inconclusive: 13 µM [activator, partial curve] | –
21 | O=S(=O)(c1ccccc1)c1nc(-c2cccs2)oc1NCc1cccnc1 | inconclusive: 25.9 µM [inhibitor, partial curve] | –
22 | C=CCC[C@H](Cc1ccc(F)cc1)C(=O)OC[C@H](Cc1c[nH]c2ccccc12)NC(=O)[C@H](CC=C)CC(=O)NCCO | – | inactive: -14.1%
23 | CCOC(=O)C1CCN(c2cc3c(cc2NC(=O)c2ccccc2Br)n(C)c(=O)n3C)CC1 | active: 9.2 µM | –
24 | COc1ccc(C(=O)Nc2cccc(NC(=O)c3ccc(OC)c(OC)c3)n2)cc1OC | active: 2.91 µM | –
25 | COc1ccc(NC(=O)/C(C#N)=C\c2cc(C)n(-c3ccc(Oc4ccc([N+](=O)[O-])cn4)cc3)c2C)cc1 | inconclusive: 3.66 µM [inhibitor, partial curve] | –

Row | SMILES | Potency | activity change, negative = inhibition
26 | Cc1ccc(OCc2nnc(SCc3cc(=O)[nH]c4ccccc34)n2-c2ccccc2)cc1 | inconclusive: 20.6 µM [inhibitor, single point] | –
27 | COc1ccc(-n2nc3cc(C)c(N)cc3n2)cc1Cl | inconclusive: 14.6 µM [activator, partial curve] | –
28 | COc1ccc(Cl)cc1-c1nc(-c2ccc(Br)o2)no1 | inconclusive: 2.59 µM [activator, full curve] | –
29 | O=C(COC(=O)c1ccc[n+]([O-])c1)Nc1ccc([N+](=O)[O-])cc1Cl | inconclusive: 16.4 µM [activator, single point] | –
30 | O=C(/C=C/Nc1ccc(F)cc1)c1ccco1 | inconclusive: 7.31 µM [activator, partial curve] | –
31 | CCOc1ccc2[nH]c(=O)c(CN(Cc3nnnn3Cc3ccccc3)CC3CCCO3)cc2c1 (stereo not drawn) | inconclusive: 20.6 µM [inhibitor, single point] | –
32 | Cc1cccc(C(=O)NC(=S)Nc2ccc(S(=O)(=O)N3CCCCC3)cc2)c1 | inconclusive: 14.6 µM [inhibitor, partial curve] | –
33 | Cc1ccc(S(=O)(=O)N2CCOCC2)cc1NC(=O)CNCc1ccc(Cl)cc1Cl | active: 23.1 µM | –
34 | Cc1ccc(S(=O)(=O)NCC(NCc2ccc(F)cc2)c2ccccc2)cc1 (stereo not drawn) | – | inactive: 3.27%
35 | CC(C)Cc1cc(C(=O)Nc2ccc(Br)cc2)no1 | inconclusive: 18.3 µM [activator, partial curve] | –
36 | CC(C)CNC(=O)c1ccccc1SCC(=O)NC12CC3CC(CC(C3)C1)C2 | inconclusive: 13 µM [inhibitor, partial curve, poor fit] | –
37 | Cc1c(NC(=O)c2ccccc2N)cccc1C(=O)O | inconclusive: 2.91 µM [activator, full curve] | –
38 | COc1ccc(CCNC(=O)COc2ccc(-c3ccccc3)cc2)cc1OC | – | inactive: -2.46%
39 | CC(C)N(Cc1ccc(F)cc1)C(=O)c1cc2ccccc2oc1=O | inconclusive: 25.9 µM [activator, single point] | –
40 | CCOC(=O)C1CCCN(C(=O)c2sc3nc(C)nc(N(CC)CC)c3c2C)C1 (stereo not drawn) | inconclusive: 23.1 µM [inhibitor, single point] | –
41 | O=C(NC1CCCCC1)c1cnn2c(C(F)(F)F)cc(-c3ccco3)nc12 | inconclusive: 25.9 µM [inhibitor, single point] | –
42 | Brc1cnc(N2CCCCC2)nc1N1CCOCC1 | – | inactive: 2.76%
43 | CC(=O)c1sc(N/N=C/c2ccc(C(C)C)cc2)nc1C | inconclusive: 5.17 µM [activator, partial curve] | –
44 | O=C(Nc1ccccc1NC(=O)c1c(F)cccc1F)c1c(F)cccc1F | – | inactive: 2.11%
45 | Cc1ccc(NC(=O)c2cc(S(=O)(=O)N3CCCC3)cn2C)cc1 | – | inactive: -4.37%
46 | COc1ccc(NC(=O)CCOc2ccccc2C)cc1S(=O)(=O)N1CCCCC1 | inconclusive: 16.4 µM [inhibitor, partial curve] | –
47 | CC(=O)c1cccc(NC(=O)c2cc(-c3ccncc3)nc3ccccc23)c1 | active: 20.6 µM | –
48 | O=c1c2ccccc2nc2c3ccccc3c(NCCO)nn12 | – | inactive: -5.36%
49 | CC[C@]12c3[nH]c4cc(CCC(=O)N(C)C)ccc4c3CCN1C(=O)[C@@H](CC(=O)NCc1ccc(OC)c(OC)c1)C[C@@H]2C(=O)N1CCN(C(=O)C2CC2)CC1 | – | inactive: -0.875%
50 | C=C(C)Cc1c(C)c(C#N)c2[nH]c3ccccc3n2c1=O | active: 20.6 µM | –

Row | SMILES | Potency | activity change, negative = inhibition
51 | COc1ccc(S(=O)(=O)NCc2ccco2)c2ccccc12 | – | inactive: 1.07%
52 | CC(=O)N(CCc1ccccc1C)Cc1cc2ccc(C)cc2[nH]c1=O | active: 16.4 µM | –
53 | CNS(=O)(=O)c1cccc(C(=O)OCC(=O)c2c(N)n(C)c(=O)n(C)c2=O)c1 | – | inactive: -12.6%
54 | O=c1oc2ccc(C#CC3(O)CCCCC3)cc2cc1-n1cc(-c2ccccn2)nn1 | inconclusive: 14.6 µM [activator, partial curve] | –
55 | CCOc1ccc(C(=O)Nc2ccccc2C#N)cc1[N+](=O)[O-] | inconclusive: 9.2 µM [inhibitor, partial curve, poor fit] | –
56 | Cc1ccc(C(C)C)c(OCCn2ccnc2C)c1 | – | inactive: -0.291%
57 | Cc1nn(-c2ccccc2)c(N)c1N=Nc1ccc2ccccc2c1 | inconclusive: 20.6 µM [activator, partial curve] | –
58 | Cn1c(=O)n(C)c2cc(NC(=O)c3ccccc3[N+](=O)[O-])c(Br)cc21 | – | inactive: 0%
59 | S=c1[nH]nc(-c2ccc(Cl)cc2)n1-c1ccc(Cl)cc1 | – | inactive: 6.1%
60 | CCOc1ccc(CC(=O)N2CCN=C2SC)cc1 | – | inactive: -9.43%
61 | O=C(COC(=O)C1CCN(S(=O)(=O)c2cccs2)CC1)c1cc2ccccc2o1 | inconclusive: 23.1 µM [activator, single point] | –
62 | O=C1NC(=O)C(c2ccc(F)cc2)N1 (stereo not drawn) | inconclusive: 29.1 µM [activator, single point] | –
63 | O=C1CSc2ccc(C(=O)NCCC3=CCCCC3)cc2N1 | inconclusive: 8.91 µM [activator, partial curve, poor fit] | –
64 | CC(=O)c1ccc(NC(=O)CSc2nnc(NC(=O)C3CC3)s2)cc1 | – | inactive: 11.1%
65 | COc1cc(C2SCC(=O)N2c2nnc(C34CC5CC(CC(C5)C3)C4)s2)cc(OC)c1OC (stereo not drawn) | – | inactive: -2.39%
66 | Cc1ccc(C(=O)NCc2nc3ccccc3[nH]2)o1 | – | inactive: 3.93%
67 | O=C(CCc1nc2ccccc2c(=O)[nH]1)N1CCN(C/C=C/c2ccccc2)CC1 | inconclusive: 16.4 µM [inhibitor, single point] | –
68 | COc1ccc(N2CCN(C(=O)c3ccc(NC(=O)C4=CSCCO4)cc3)CC2)cc1 | – | inactive: 13.8%
69 | COc1nc(C)nc2c1ccc1ccccc12 | inconclusive: 20.6 µM [activator, single point] | –
70 | O=C(CSc1nnc(C2CC2)n1C1CC1)c1ccccc1F | inconclusive: 18.3 µM [activator, single point] | –
71 | CCOc1ccc(/C=N/OCC(=O)NC(c2ccccc2)c2ccccc2)cc1 | inconclusive: 18.4 µM [inhibitor, single point] | –
72 | CCN(C(=O)CSc1nc2cc(Cl)ccc2c(=O)n1Cc1ccco1)C1CCS(=O)(=O)C1 (stereo not drawn) | inconclusive: 29.1 µM [inhibitor, single point] | –
73 | Cc1c(C)c2ccc(OCC(=O)N3CCN(c4cccc(Cl)c4)CC3)cc2oc1=O | inconclusive: 18.3 µM [inhibitor, partial curve, poor fit] | –

Shown in CSV form: entries from further up
Row,SMILES,Potency,"activity change, negative = inhibition"
50,C=C(C)Cc1c(C)c(C#N)c2[nH]c3ccccc3n2c1=O,active: 20.6 µM,–
51,COc1ccc(S(=O)(=O)NCc2ccco2)c2ccccc12,–,inactive: 1.07%
52,CC(=O)N(CCc1ccccc1C)Cc1cc2ccc(C)cc2[nH]c1=O,active: 16.4 µM,–
53,CNS(=O)(=O)c1cccc(C(=O)OCC(=O)c2c(N)n(C)c(=O)n(C)c2=O)c1,–,inactive: -12.6%
54,O=c1oc2ccc(C#CC3(O)CCCCC3)cc2cc1-n1cc(-c2ccccn2)nn1,"inconclusive: 14.6 µM [activator, partial curve]",–
55,CCOc1ccc(C(=O)Nc2ccccc2C#N)cc1[N+](=O)[O-],"inconclusive: 9.2 µM [inhibitor, partial curve, poor fit]",–
56,Cc1ccc(C(C)C)c(OCCn2ccnc2C)c1,–,inactive: -0.291%
57,Cc1nn(-c2ccccc2)c(N)c1N=Nc1ccc2ccccc2c1,"inconclusive: 20.6 µM [activator, partial curve]",–
58,Cn1c(=O)n(C)c2cc(NC(=O)c3ccccc3[N+](=O)[O-])c(Br)cc21,–,inactive: 0%
59,S=c1[nH]nc(-c2ccc(Cl)cc2)n1-c1ccc(Cl)cc1,–,inactive: 6.1%
60,CCOc1ccc(CC(=O)N2CCN=C2SC)cc1,–,inactive: -9.43%
61,O=C(COC(=O)C1CCN(S(=O)(=O)c2cccs2)CC1)c1cc2ccccc2o1,"inconclusive: 23.1 µM [activator, single point]",–
62,O=C1NC(=O)C(c2ccc(F)cc2)N1 (stereo not drawn),"inconclusive: 29.1 µM [activator, single point]",–
63,O=C1CSc2ccc(C(=O)NCCC3=CCCCC3)cc2N1,"inconclusive: 8.91 µM [activator, partial curve, poor fit]",–
64,CC(=O)c1ccc(NC(=O)CSc2nnc(NC(=O)C3CC3)s2)cc1,–,inactive: 11.1%
65,COc1cc(C2SCC(=O)N2c2nnc(C34CC5CC(CC(C5)C3)C4)s2)cc(OC)c1OC (stereo not drawn),–,inactive: -2.39%
66,Cc1ccc(C(=O)NCc2nc3ccccc3[nH]2)o1,–,inactive: 3.93%
67,O=C(CCc1nc2ccccc2c(=O)[nH]1)N1CCN(C/C=C/c2ccccc2)CC1,"inconclusive: 16.4 µM [inhibitor, single point]",–
68,COc1ccc(N2CCN(C(=O)c3ccc(NC(=O)C4=CSCCO4)cc3)CC2)cc1,–,inactive: 13.8%
69,COc1nc(C)nc2c1ccc1ccccc12,"inconclusive: 20.6 µM [activator, single point]",–
70,O=C(CSc1nnc(C2CC2)n1C1CC1)c1ccccc1F,"inconclusive: 18.3 µM [activator, single point]",–
71,CCOc1ccc(/C=N/OCC(=O)NC(c2ccccc2)c2ccccc2)cc1,"inconclusive: 18.4 µM [inhibitor, single point]",–

Two compounds drawn at random from those above, as already listed:
Row | SMILES | Potency | activity change, negative = inhibition
54 | O=c1oc2ccc(C#CC3(O)CCCCC3)cc2cc1-n1cc(-c2ccccn2)nn1 | inconclusive: 14.6 µM [activator, partial curve] | –
53 | CNS(=O)(=O)c1cccc(C(=O)OCC(=O)c2c(N)n(C)c(=O)n(C)c2=O)c1 | – | inactive: -12.6%
